Measured values published in PMC7139850.
Results are given in words; binding and its absence hold for the method and conditions named. Binding seen in cells or lysates may run through a third protein. Some results given as binding are weak or reduced against the parent protein; the word gives no strength.

Amino acid sequences for entries named in this document (tags omitted). Residues count along the entry.
UniProt P04785, residues 20-509: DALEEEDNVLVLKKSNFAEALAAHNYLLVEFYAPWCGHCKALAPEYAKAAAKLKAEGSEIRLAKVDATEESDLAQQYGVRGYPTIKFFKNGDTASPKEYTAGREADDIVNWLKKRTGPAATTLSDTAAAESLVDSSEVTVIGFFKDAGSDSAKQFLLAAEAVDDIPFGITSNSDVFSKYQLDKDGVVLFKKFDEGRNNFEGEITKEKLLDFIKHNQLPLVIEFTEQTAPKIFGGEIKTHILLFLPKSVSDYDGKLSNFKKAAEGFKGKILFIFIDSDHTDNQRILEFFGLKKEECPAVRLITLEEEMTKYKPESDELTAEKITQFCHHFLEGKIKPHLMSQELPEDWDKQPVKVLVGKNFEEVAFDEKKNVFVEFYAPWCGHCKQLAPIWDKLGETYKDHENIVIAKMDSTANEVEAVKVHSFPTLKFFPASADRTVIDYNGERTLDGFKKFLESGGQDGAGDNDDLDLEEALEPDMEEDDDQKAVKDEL

Target: NR2A subunit of the N-methyl-D-aspartate receptor (NMDAR) (rat (endogenous in hippocampus)) (UniProt Q00959)
Assay: co-IP; rat hippocampal tissue lysed in RIPA buffer with protease and phosphatase inhibitor cocktails and 1 mM sodium orthovanadate; equal amounts of protein precipitated with the primary antibody and protein G sepharose at 4 °C overnight; Western blot; animals: saline vs PILO acute seizure, control vs epileptic rats, control siRNA vs PDI siRNA in epileptic rats

“Protein disulfide isomerase (PDI) (from UniProt P04785 20-509) (enzyme)” was tested, and the binding was “binds”.
